In all, about 52,000 sequences went through this assay and about 210 (0.4%) were called active.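 Rule for the calls: active = gene whose silencing raises cell survival under the drug, median off-target-corrected z-score across its silencing RNAs 2 or more; inactive = the rest.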 The list shows a part of the results.
test: Resistance to Poly (ADP-Ribose) Polymerase inhibitor: Gene Identification via Genome-wide siRNA Screen; conditions: mouse BRCA2 R2336H ES cells, olaparib, CellTiter-Glo viability; hits give high values
Summary of the method: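 Genome-wide siRNA screen (3 siRNAs/gene, 20 nM) in mouse ES cells carrying hypomorphic BRCA2 R2336H; olaparib 500 nM added 48 h post-transfection, CellTiter-Glo viability 72 h later. Normalized to plate-median negative control; MAD z-scores, gene median, seed-adjusted.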

Sequence | z-score
GCCAUUUACAUCUACAUUATT against Olfr1338 | inactive: -0.219
GGAUUUUCUGGAGUUGAUGTT against Mcoln2 | inactive: 1.6
CGAGAUUGAUAGUACAUUCTT against Olfr1229 | inactive: 1
GGUCCAAUGGAUUUUGUUUTT against 1300014I06Rik | inactive: 0.261
GGUGGACGGACAUUUUGUUTT against Rab9 | inactive: 0.739
GGUUCACAGUAACCAUUGGTT against 5830416A07Rik | inactive: -0.652
GGAUCAAUUGACCACAAACTT against 6530407C02Rik | inactive: 0.175
GGAAUCCUGUUCCUUAUCATT against Slc43a3 | inactive: 1.15
CGCAAUGUGUUGGGCCUCATT against F730038I15Rik | inactive: -1.21
GGCAGAUGCCAAUGAGGAATT against Cst3 | inactive: -0.723
GAUUGGAACUUGUGGAUCUTT against Defb8 | inactive: -1.28
GGACCAAGGCCUCACAAAATT against Nppb | inactive: 0.093
GGGCACACUGAUGUGGUCATT against Fem1b | inactive: 1.6
GCACAAGCCUCAAGACGUATT against Mgat4b | inactive: 0.986
GCUCCAUGAAUGUCCAACATT against 4930544G21Rik | inactive: 0.223
GGAAACACAUCAUUUGAUGTT against D1Bwg0491e | inactive: 1.66
GGUCCUCAAUGAAAUGAGATT against Krt1-12 | inactive: -1.61
GGUAUCAAGGCUCUGGUGUTT against Il28ra | inactive: 1.34
GGAAGGCCAUUUCAACUAATT against Olfr1367 | inactive: 0.314
GGCCAUCUUGAAUUUUUUATT against 2410002F23Rik | inactive: 0.317
GCAUCAUUAUCUCGGUACUTT against Izumo1 | inactive: -0.671
GCUCAAUCGAUACUCAGAUTT against Lzts1 | inactive: 0.449
GCAAUUUCUAUUUGGUGGGTT against B630019K06Rik | inactive: -0.201
GGUCUAUGCAAUAAAGGUUTT against Sphk2 | inactive: -0.0369
GGCAAGACCCAUUAAAUGATT against B230219D22Rik | inactive: 0.0667
GGACGGAUCUGAAAGAUACTT against Zfp251 | inactive: 0.921

An excerpt of these results, with tabs:
Sequence	z-score
CGAGAUUGAUAGUACAUUCTT against Olfr1229	inactive: 1
GGUUCACAGUAACCAUUGGTT against 5830416A07Rik	inactive: -0.652
GGUCUAUGCAAUAAAGGUUTT against Sphk2	inactive: -0.0369
GGCAAGACCCAUUAAAUGATT against B230219D22Rik	inactive: 0.0667

Later entries.

Sequence | z-score
ACAAUGGUGAGUAAUAGCATT against Olfr730 | inactive: -0.137
GCCUUACUACUACAACAACTT against 2610317D23Rik | inactive: 1.72
GGUUAGACCAAUAAAAAGCTT against Pfdn1 | inactive: 0.217
GGUCUUUCAAGUUGCAUACTT against Lama1 | inactive: -0.316
CCGUACAGAUUGAGAAUACTT against 0910001K20Rik | inactive: 0.64
GGCAAAUGGAAACAGCCAUTT against Serpina1d | inactive: 0.00508
CGUUGUUCUUAUCCUGAGGTT against Olfr448 | inactive: -1.04
GGCAUUUUCGUAUAGUUACTT against C76566 | inactive: -0.862
GGUUCUUUUUGGUUUAGGUTT against Tm9sf4 | inactive: 1.27
GGAAAUGCAGUUGUGAAUGTT against Rab4a | inactive: 1.71
GGGUCCAAUAAACAUGUCUTT against B3galt4 | inactive: 2.55
CCUGUGCUCUUAUUAUCAATT against Rpp14 | inactive: -0.156
CCGCCAUGACAUUAUGCUGTT against Klk15 | inactive: 1.14
GGAUAAUUGAUCAUAGAGGTT against 1810045K17Rik | inactive: 0.0152
GGAGAAAAUCAAACCAGAUTT against 2810457M08Rik | inactive: 0.415
GGCCUAUCAGAUAAAGAAGTT against BC026744 | inactive: 1.26
CGACCCAAUCGAUGUUUGUTT against Pyp | inactive: -0.399
GGUAUUCAAGGUAAGAAAGTT against Ercc5 | inactive: -0.34
GGGCUUUCUCCAAUCGUAATT against B930018B01 | inactive: -0.673
GCAAGUUUCACAGAAUGACTT against Loxl4 | inactive: 2.1
CCUACAGAGACUAUUCACUTT against Fiz1 | inactive: -0.0405
CCGGCUAAACAUUAUUCAUTT against Fpgs | inactive: 0.213
CCUCAUGUCUGGCAUCUUGTT against Egr4 | inactive: 0.544
GCUCAGUAAUCUGAGGCCATT against Lox | inactive: -1.32
GGCUGAGUUACGGUUAAAGTT against Ndufb5 | inactive: -0.523
GGUAGACUCUAGCUUCCUCTT against Admr | inactive: 2.67

Sequence | z-score
CCUCAGUGGUAUAGAGGUATT against Gpr84 | inactive: -0.792
GGUUUCUCGAGAAGUUACCTT against Nab1 | inactive: -0.1
GGCAUCAUAAUGGCAUCGGTT against Aoc2 | inactive: -0.247
GGCGGUUAGACAUUAUGGATT against MGC41689 | inactive: 0.521
GGGCCACAAAGAAAUCAUATT against AI553587 | inactive: -0.124
GGACCACAUAGCUUUUGAGTT against 2900036G02Rik | inactive: 0.884
GGAAGCAGCAAAGAAGUUGTT against Olfr1109 | inactive: -0.77
GGAAUCUCCACCAUACAGGTT against V1rc17 | inactive: 0.0391
GGGUCCUUUGUCACAUUCATT against Psmd7 | inactive: -1.7
CCCAGGUGUAUUUUACAUATT against D10Wsu102e | inactive: -0.395
GGAGAAACUCUAGAAUUGATT against Mamdc1 | inactive: 1.13
CCAAAAUGAGGGCAUCUAUTT against Mvp | inactive: -0.733
CCACUAUGAAUCGUGGUUCTT against Sp6 | inactive: 0.658
GGAGAGAUUUCUUGGUAAATT against Tex261 | inactive: -0.632
GGCAUGACUAUAACCAUUUTT against 1110004F10Rik | inactive: 1.27
GCAAGUGGUGUCGCUGUCATT against Olfr1349 | inactive: -0.661
GUCUUCAGCAGUCUUCAGGTT against Sprr2f | inactive: -0.896
GGUCCAAUUAACUUCACCGTT against Myl2 | inactive: -0.915
GCGUAUAAGCUCAGUAGACTT against Plekhe1 | inactive: 0.576
GGCCAACUCUACCUGAACATT against 9230002F21Rik | inactive: 0.64
GGACAAAAUUAGACCUUUGTT against Arf2 | inactive: -2.26
GCUUGAGUAGUGCAGAAACTT against 5430433L24Rik | inactive: -1.47
GGGUCCCGGUUUAAAGCUUTT against 1110001J12Rik | inactive: 1.13
GGCCAUGGUUGAGUUUGCUTT against 1110014D18Rik | inactive: 0.805
GCCAAGAAACAAUACUCAUTT against Olfr1352 | inactive: 0.625
CGAGAGCUAAAAAGAGUAATT against Chd1 | inactive: -0.923

An excerpt of these results, field by field:
GCGUAUAAGCUCAGUAGACTT against Plekhe1
  z-score: inactive: 0.576
GGCCAACUCUACCUGAACATT against 9230002F21Rik
  z-score: inactive: 0.64

Next part:

Sequence | z-score
CCUGGACCCAUGAAGUCUUTT against 2310047C17Rik | inactive: -1.05
GGGAAAAUCUGAAGUGUAATT against Galnt13 | inactive: 0.791
GGCUCAUUUGAUGGAUUUCTT against Elf5 | inactive: -1.03
GGCUCUGUUGAAUGCAACGTT against Slc39a6 | inactive: -0.317
GGGUUCUGGGAACUUUAUATT against Bdkrb1 | inactive: 0.0368
GGGAUUAAAAGAUGACAUUTT against Dusp12 | inactive: 0.046
GGGUUGCUGACUUUAGGAUTT against Lmx1a | inactive: 0.558
GGAAGUUGAAAUGCUGUCGTT against Clcnka | inactive: -1.35
CGCACUUGACCUAGCAAGUTT against A230083G16Rik | inactive: -0.472
GGCCGGUUAGCUAAUCAGATT against 2810037C14Rik | inactive: 0.0231
GGUGUUCCUGGUGAAGCAATT against Camk1g | inactive: -1.58
GCACUGAAAGUCUACGUCCTT against Rara | inactive: 0.654
GGCACUUUUAUUCUUCUCUTT against Zmpste24 | inactive: -0.0471
GGCGGAUAUCUUGAAAAACTT against Ntf3 | inactive: -0.416
CCAAGAGCUGAAACAAGAATT against Ankrd12 | inactive: -0.125
GGUGAUGUUUCUCACUGUCTT against A2m | inactive: 1.21
GCGGCUUAGUCCAUCAGGATT against 2010301N04Rik | inactive: 0.986
GCCAGUUGACCACUAUUGATT against 5730589K01Rik | inactive: -1.49
GGCUAUGGACCGAAAGAUUTT against Dgcr6 | inactive: -1.71
CCUGACAGGUUUAUGUGAATT against Cbl | inactive: 0.564
CCCUUGAACAUUCUACUCUTT against 1700012A03Rik | inactive: 0.549
GCUGUGUAGCAUUUUAACATT against Ank2 | inactive: 0.0136
GCAAAAAUCGACUAAAGAGTT against B230217C06Rik | inactive: 0.115
GGGAUUCGAAGGACAAUAGTT against V1rh20 | inactive: -0.932
GGCUUUCAUAAUAUAAGACTT against Kera | inactive: 0.221

Reference: PubChem BioAssay AID1347423 (Functional Genomics Laboratory (NCATS/FGL), 2020)
